Results are given in words; binding and its absence hold for the method and conditions named. In cells and extracts the contact can be indirect. Where a sequence is shown, tags or fusion partners need not be part of it.
Target: T1, myc-Tcf7l1 (Xenopus laevis Tcf7l1), expressed in HEK293FT cells (Xenopus laevis) (UniProt Q90ZB6)
T1 sequence: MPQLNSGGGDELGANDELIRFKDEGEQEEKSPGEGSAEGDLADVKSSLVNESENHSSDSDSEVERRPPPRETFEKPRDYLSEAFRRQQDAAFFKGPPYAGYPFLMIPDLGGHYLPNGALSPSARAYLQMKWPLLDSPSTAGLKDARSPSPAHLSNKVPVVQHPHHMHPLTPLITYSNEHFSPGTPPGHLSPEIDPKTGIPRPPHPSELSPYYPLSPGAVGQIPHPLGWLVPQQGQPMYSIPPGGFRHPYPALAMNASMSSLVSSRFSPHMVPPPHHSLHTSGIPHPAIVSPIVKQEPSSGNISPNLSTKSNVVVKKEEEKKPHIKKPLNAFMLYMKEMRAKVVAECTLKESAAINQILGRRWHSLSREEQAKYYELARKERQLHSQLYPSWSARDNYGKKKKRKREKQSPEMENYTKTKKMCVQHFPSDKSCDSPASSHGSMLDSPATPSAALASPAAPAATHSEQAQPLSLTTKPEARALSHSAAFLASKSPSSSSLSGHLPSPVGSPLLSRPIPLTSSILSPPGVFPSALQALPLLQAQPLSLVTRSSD
Experiment: co-IP; HEK293FT cells transfected 48 h; lysates in IP buffer (2 mM Tris-Cl pH 7.5, 2 mM EDTA, 150 mM NaCl, 1% Triton X-100); precipitated with anti-myc antibody and Protein G-sepharose at 4 °C; immunoblot

Uch37 (ubiquitin C-terminal hydrolase 37), as in the co-IP of Fig. 2a (from UniProt Q9Y5K5-1 1-329) (enzyme)
binding: no binding

From paper PMC5309806
